At least one compound was matched to its structure with a doubt left.
Key:
[1] = test system: CaNOX; assay: Kinetics of NADH oxidase (NOX) with modified cofactor; type: biochemical, Clostridium aminoverlaricum; details: cofactor as substrate of CaNOX
Protocol: The relative enzyme activity for the NAD-dependant glycerol-3-phosphate dehydrogenase enzymes identified for DHAP synthesis was assessed with the modified N^6-2AE-NAD. Kinetic data for EcG3PD and CaNOX was also obtained. To determine the relative activities and kinetic enzyme efficiency, modified N^6-2AE-NAD was reduced enzymatically, separated from enzymes using ultrafiltration and the amount of N^6-2AE-NADH calculated based on the absorbance A340nm.

[2] = Batch reactions converting glycerol to G3P and DHAP; type: biochemical
Protocol: Reactions were conducted at room temperature in 1 mL total volume with 10 mM glycerol as starting substrate, between 1 and 14 nM of enzyme and 100 μM each of ATP and NAD. Samples were collected at various time points and analysed by LCMS (SIM monitoring for G3P and DHAP).
G3P and DHAP were separated using a modification of the method described in Prieto-Blanc et al., (2010). Chromatographic conditions were SIELC ObeliscN column (250 mm) with 50% mobile phase A, 50% mobile phase B for 30 minutes. Mobile phase A: 0.1% formic acid; mobile phase b: methanol with 0.1% acetic acid. Mass spectrophotometric detection was conducted using API-ES mode with an Agilent 6120 Quadroploe LCMS. Glycerol-3-phosphate was quantified by selected ion monitoring of ion 171, DHAP quantified by selected ion monitoring of ion 169, the three aldol condensation products fructose-1,6-biphosphate, “AP” and “XP” were quantified by selected ion monitoring of […].

Compound NC(=O)C1=CN([C@@H]2O[C@H](COP(=O)(O)OP(=O)(O)OC[C@H]3O[C@@H](n4cnc5c(N)ncnc54)[C@H](O)[C@@H]3O)[C@@H](O)[C@H]2O)C=CC1 [NADH] has a Kcat/KM [1] of 5.9e+06 M⁻¹ s⁻¹.
With NC(=O)c1ccc[n+]([C@@H]2O[C@H](COP(=O)([O-])OP(=O)(O)OC[C@H]3O[C@@H](n4cnc5c(N)ncnc54)[C@H](O)[C@@H]3O)[C@@H](O)[C@H]2O)c1 [NAD, nicotinamide adenine dinucleotide] the “initial rate of NAD^+ turnover” value ([2]; batch reaction) was 22 per ten minutes and the “NAD^+ turnover extrapolated from the initial rate” value ([2]; if product inhibition were not in effect) was ~132 per hour.
Work on NCCNc1ncnc2c1ncn2[C@@H]1O[C@H](COP(=O)(O)OP(=O)(O)OC[C@H]2O[C@@H](N3C=CCC(C(N)=O)=C3)[C@H](O)[C@@H]2O)[C@@H](O)[C@H]1O [N^6-2AE-NADH] yielded a Kcat/KM [1] of 1.6e+06 M⁻¹ s⁻¹.

— patent publication US20180208920A1, “MOLECULAR MACHINES” (Commonwealth Scientific and Industrial Research Organisation, priority 2015, published 2018)
